The data set relates to hPXR-RXR heterodimer (human pregnane X receptor / retinoid X receptor). The data set can be described thus: EMSA. Conditions: less affinity than XREM-DR3-1 or Prox-ER6; protein translated in vitro; label: 32P. In general terms: In EMSA bound probe runs differently from free probe, usually more slowly.

Chains of the proteins cited; added tags and fusions are not shown. A line that says so, or that is headed by a name, gives the form on record, which may keep a tag or linker.
hPXR-RXR heterodimer (human pregnane X receptor / retinoid X receptor), one chain, as listed by the source, chain 2 of 2: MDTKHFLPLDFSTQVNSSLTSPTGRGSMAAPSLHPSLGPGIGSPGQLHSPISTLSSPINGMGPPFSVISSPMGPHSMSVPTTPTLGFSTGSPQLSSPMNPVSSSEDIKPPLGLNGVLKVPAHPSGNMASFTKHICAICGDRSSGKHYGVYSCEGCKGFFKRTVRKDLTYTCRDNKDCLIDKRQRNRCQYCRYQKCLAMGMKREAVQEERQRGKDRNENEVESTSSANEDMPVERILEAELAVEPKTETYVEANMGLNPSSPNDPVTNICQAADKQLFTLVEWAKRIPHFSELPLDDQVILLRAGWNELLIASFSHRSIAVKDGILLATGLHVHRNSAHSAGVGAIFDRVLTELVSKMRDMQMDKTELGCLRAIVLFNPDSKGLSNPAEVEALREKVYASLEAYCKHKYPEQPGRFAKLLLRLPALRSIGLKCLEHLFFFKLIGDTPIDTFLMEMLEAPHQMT
hPXR-RXR heterodimer (human pregnane X receptor / retinoid X receptor), one chain, as listed by the source, chain 1 of 2: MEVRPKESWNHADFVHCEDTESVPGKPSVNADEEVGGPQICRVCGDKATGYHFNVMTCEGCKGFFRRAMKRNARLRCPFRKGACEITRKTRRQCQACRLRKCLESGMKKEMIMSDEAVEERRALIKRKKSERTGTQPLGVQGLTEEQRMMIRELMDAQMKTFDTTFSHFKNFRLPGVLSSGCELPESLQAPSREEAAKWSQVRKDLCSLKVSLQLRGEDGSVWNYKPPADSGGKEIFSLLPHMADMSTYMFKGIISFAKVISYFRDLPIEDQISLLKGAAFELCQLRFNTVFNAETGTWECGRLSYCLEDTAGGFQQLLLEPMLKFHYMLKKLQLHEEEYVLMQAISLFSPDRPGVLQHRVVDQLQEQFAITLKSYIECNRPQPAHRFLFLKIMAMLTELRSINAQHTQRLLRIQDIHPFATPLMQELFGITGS

Weaker means in comparison with the reference protein, sequence or condition of that experiment.

With “CCTTGAAATCATGTCGGTTCAAGC (double strand) [XREM-ER6]”, the binding result is “binds more weakly”.

The values above are taken from patent US20060105385.
